From publication PMC7275706
These are yes or no findings as the source states them, for the method shown. In cells and extracts the contact can be indirect. A yes stands for co-enrichment or nearness to the bait. Other partners may have been found.

Amino acid sequences for entries named in this document (tags omitted). A change or cut given only in a name is not applied to a line headed by its entry.
UniProt Q1JT06: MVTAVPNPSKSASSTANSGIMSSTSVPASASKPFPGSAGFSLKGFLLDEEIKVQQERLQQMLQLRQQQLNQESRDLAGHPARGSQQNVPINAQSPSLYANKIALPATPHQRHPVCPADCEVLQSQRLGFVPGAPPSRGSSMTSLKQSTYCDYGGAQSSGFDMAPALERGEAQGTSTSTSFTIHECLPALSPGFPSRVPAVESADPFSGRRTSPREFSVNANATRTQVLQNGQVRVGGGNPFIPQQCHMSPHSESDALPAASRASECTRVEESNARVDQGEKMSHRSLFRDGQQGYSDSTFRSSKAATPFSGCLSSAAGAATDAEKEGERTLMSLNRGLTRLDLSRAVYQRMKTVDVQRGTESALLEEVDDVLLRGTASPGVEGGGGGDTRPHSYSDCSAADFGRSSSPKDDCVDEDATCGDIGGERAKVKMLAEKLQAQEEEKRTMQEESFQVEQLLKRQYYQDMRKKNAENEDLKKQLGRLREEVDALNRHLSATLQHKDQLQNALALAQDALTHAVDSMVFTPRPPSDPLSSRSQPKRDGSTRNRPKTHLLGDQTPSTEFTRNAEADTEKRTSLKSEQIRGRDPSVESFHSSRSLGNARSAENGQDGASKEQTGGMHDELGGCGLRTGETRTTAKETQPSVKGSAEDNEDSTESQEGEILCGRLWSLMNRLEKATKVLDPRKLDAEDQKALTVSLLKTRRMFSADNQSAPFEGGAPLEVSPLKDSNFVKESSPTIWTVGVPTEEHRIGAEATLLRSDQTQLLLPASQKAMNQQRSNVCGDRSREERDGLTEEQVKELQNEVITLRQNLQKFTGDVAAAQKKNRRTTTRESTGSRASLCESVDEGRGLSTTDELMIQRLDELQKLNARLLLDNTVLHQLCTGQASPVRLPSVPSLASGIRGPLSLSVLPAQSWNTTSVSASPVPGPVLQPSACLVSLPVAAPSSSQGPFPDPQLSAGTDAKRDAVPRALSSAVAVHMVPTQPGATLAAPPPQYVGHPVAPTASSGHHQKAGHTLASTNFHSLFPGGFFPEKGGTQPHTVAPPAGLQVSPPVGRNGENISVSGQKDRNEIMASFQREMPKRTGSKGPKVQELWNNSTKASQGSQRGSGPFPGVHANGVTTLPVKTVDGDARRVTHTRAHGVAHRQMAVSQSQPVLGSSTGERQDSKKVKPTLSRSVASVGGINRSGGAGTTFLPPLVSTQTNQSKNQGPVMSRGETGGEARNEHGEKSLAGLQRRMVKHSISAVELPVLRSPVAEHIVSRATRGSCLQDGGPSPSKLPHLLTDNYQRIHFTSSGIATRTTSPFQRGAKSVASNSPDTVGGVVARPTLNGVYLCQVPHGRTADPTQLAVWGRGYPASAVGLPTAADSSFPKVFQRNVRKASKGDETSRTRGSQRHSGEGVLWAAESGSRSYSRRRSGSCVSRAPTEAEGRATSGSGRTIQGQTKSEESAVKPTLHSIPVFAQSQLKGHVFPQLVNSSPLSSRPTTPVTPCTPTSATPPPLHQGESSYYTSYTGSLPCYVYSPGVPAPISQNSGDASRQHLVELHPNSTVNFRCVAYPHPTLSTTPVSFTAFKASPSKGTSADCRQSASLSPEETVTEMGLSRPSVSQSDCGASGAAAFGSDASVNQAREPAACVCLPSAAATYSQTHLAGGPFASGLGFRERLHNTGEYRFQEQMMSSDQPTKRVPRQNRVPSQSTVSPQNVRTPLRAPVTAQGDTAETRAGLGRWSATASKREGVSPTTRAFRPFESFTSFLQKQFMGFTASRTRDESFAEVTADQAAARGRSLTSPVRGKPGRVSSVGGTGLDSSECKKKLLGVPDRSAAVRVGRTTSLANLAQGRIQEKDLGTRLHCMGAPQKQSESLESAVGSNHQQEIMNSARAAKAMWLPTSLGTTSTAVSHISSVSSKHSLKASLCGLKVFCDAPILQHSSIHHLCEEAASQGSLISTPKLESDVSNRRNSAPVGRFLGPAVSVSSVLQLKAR

Target: AC9 endogenously tagged with BirA* (AC9^BioID) (Toxoplasma gondii) (UniProt S7V0W9)
Assay: proximity labelling; AC9-BirA* parasites grown 24 h in 150 μM biotin; 1% Triton X-100 cytoskeletal fraction; streptavidin purification; LC-MS/MS

“apical cap protein 10 (AC10; TGGT1_292950), endogenous in parasites (from UniProt Q1JT06)” was tested, and the binding was “binds”.
